This passage reports intracellular bacterial bioluminescence results from the supplement of paper PMC12578635.

Some of the results follow. Rule as the data show it: active = 150% or more and inactive = the rest. Most values come without repeats; read them as rough.

In the test the test system is Staphylococcus aureus JE2-lux inside RAW 264.7 macrophages. The experiment in a line: intracellular bacterial bioluminescence relative to DMSO vehicle; higher = higher intracellular bacterial metabolic activity. The following applies: 10 µM; treatment time 4 h; gentamicin 50 µg/ml.
In the case of `Cc1oc2c(O)c(O)ccc2c(=O)c1-c1ccccc1`, the intracellular bacterial bioluminescence is inactive: 96.8%.

Regarding `COc1cc(/C=N/n2c(C)cc(C)c(C#N)c2=O)ccc1OC(C)=O`, the intracellular bacterial bioluminescence was inactive: 87.9%.

Turning to `CN(C)C(=O)c1csc2nc(-c3ccc(NC(=O)c4ccc(Cl)nc4)cc3)cn12`, the intracellular bacterial bioluminescence was inactive: 66%.

With `CCC(CC)C(=O)N1CC(=O)Nc2ccc(Cl)cc2C1c1ccc(F)cc1` (configuration not stated), the intracellular bacterial bioluminescence is inactive: 73.8%.

Turning to `COCCn1c(N)c(S(=O)(=O)c2cccc(C)c2)c2nc3ccccc3nc21`, the intracellular bacterial bioluminescence is inactive: 6.67%.

`Cc1nn(C)cc1C(=O)NC1CCN(c2nc3c(c(=O)[nH]2)CCCC3)CC1`: the intracellular bacterial bioluminescence is inactive: 109%.

For the compound `Cc1ccc2nc(-n3nc(C)c4c3NC(=O)CC4c3ccc(F)c(F)c3)sc2c1` (configuration not stated), the intracellular bacterial bioluminescence is inactive: 93.2%.

With `CC(C)OCCCNC(=O)c1c(N)n(/N=C/c2ccccc2O)c2nc3ccccc3nc12`, the intracellular bacterial bioluminescence is inactive: 82.8%.

As to `O=C(CSc1nc2c(c(=O)n1-c1ccc(F)cc1)SCC2)NCC1CCCO1` (configuration not stated), the intracellular bacterial bioluminescence is inactive: 93.5%.

Take `Cc1cc(Cl)ccc1OCC(=O)N/N=C1/C(=O)Nc2ccc(Br)cc21`: the intracellular bacterial bioluminescence was inactive: 115%.

For the compound `Oc1c(C(c2ccco2)N2CCC3(CC2)OCCO3)sc2ncnn12` (configuration not stated), the intracellular bacterial bioluminescence is inactive: 93.6%.

`CC1C(=O)N2CCCc3cc(NC(=O)COc4ccc5ccccc5c4)cc1c32` (configuration not stated): the intracellular bacterial bioluminescence is inactive: 64.1%.

For the compound `CCOc1cc(/C=C2/SC(=S)N(NC(=O)c3ccccc3OC)C2=O)ccc1O`, the intracellular bacterial bioluminescence was inactive: 67.8%.

In the case of `CC(C)(C)c1nc2ccccc2c2nn(CC(=O)N3CCNC(=O)C3(C)C)c(=O)n12`, the intracellular bacterial bioluminescence is inactive: 93.2%.

In the case of `CC(=O)N1N=C(c2ccccc2)CC1c1ccc2nccnc2c1` (configuration not stated), the intracellular bacterial bioluminescence was inactive: 107%.

For `O=C(CCCS(=O)(=O)c1ccc(F)cc1)Nc1ncnc2sccc12`, the intracellular bacterial bioluminescence was inactive: 85.9%.

Take `COc1cc(/C=C2/SC(=S)N(Nc3ccc([N+](=O)[O-])cc3[N+](=O)[O-])C2=O)ccc1O`: the intracellular bacterial bioluminescence was inactive: 55.3%.

Consider `O=C(Cc1ccc(-c2ccccc2)cc1)Nc1ccc2c(c1)CCC(=O)N2`, for which the intracellular bacterial bioluminescence was inactive: 58.7%.

On to `COC(=O)c1ccc(NC(=O)CSc2nnc(Cc3ccc(C)cc3)c(=O)n2N)cc1`, for which the intracellular bacterial bioluminescence was inactive: 38.6%.

Take `O=C1Nc2ccc(F)cc2/C1=C1/SC(=S)N(CCS(=O)(=O)O)C1=O`: the intracellular bacterial bioluminescence was inactive: 95.8%.

Regarding `Cc1c(NS(=O)(=O)c2ccc3c4c(cccc24)C(=O)N3)c(=O)n(-c2ccccc2)n1C`, the intracellular bacterial bioluminescence is inactive: 133%.

As for `O=c1c2scc(-c3ccc(F)cc3)c2ncn1Cc1ccccn1`, the intracellular bacterial bioluminescence is inactive: 28.7%.

With `Cc1cccn2cc(CCNS(=O)(=O)c3cccc([N+](=O)[O-])c3)nc12`, the intracellular bacterial bioluminescence was inactive: 87.7%.

For the compound `O=C(CCN1CCOCC1)N1N=C(c2ccc(Cl)cc2)CC1c1ccco1` (configuration not stated), the intracellular bacterial bioluminescence is inactive: 93.4%.

Regarding `O=C(COc1ccc(Br)cc1)N/N=C/c1ccccc1`, the intracellular bacterial bioluminescence is inactive: 123%.

As to `Cc1cccc(-n2ccnc2SCC(=O)Nc2ccc3c(c2)OCCO3)c1C`, the intracellular bacterial bioluminescence was inactive: 80.7%.

On to `O=C(CN1C(=O)CSC1=O)c1ccc(NC(=O)c2ccccc2)cc1`, for which the intracellular bacterial bioluminescence is inactive: 95.1%.

Consider `CCSc1nsc(NC(=O)Nc2cccc(C(C)=O)c2)n1`, for which the intracellular bacterial bioluminescence was inactive: 2.47%.

Turning to `O=C(CC1Sc2ccc(C(F)(F)F)cc2NC1=O)NC1CCCCC1` (configuration not stated), the intracellular bacterial bioluminescence was inactive: 107%.

In the case of `O=C(CSc1nc2ccccc2c(=O)[nH]1)Nc1ccc2c(c1)OCCO2`, the intracellular bacterial bioluminescence is inactive: 106%.

On to `CC(C)c1ccc2nc3sc(C(=O)N4CCOCC4)c(N)c3cc2c1`, for which the intracellular bacterial bioluminescence was inactive: 99.2%.

In the case of `COc1ccc(C(NC(=O)c2cnc(SC)nc2)c2ccncc2)cc1` (configuration not stated), the intracellular bacterial bioluminescence is inactive: 111%.

For `CN(C(=O)Cc1ccsc1)c1nc2c(s1)CCc1c-2cnn1C`, the intracellular bacterial bioluminescence is inactive: 117%.

As to `Cc1ccc(S(=O)(=O)NC(C)C(=O)Nc2n[nH]c(Cc3ccccc3)n2)cc1` (configuration not stated), the intracellular bacterial bioluminescence is inactive: 125%.

Turning to `CCN(CC)CCNC(=O)c1cnc2c(c(C)nn2-c2ccccc2)c1NCc1ccc(OC)cc1`, the intracellular bacterial bioluminescence is inactive: 98.1%.

Consider `Cc1ccc(S(=O)(=O)c2c(C(=O)N3CCCCC3)cnc3ccc(Cl)cc23)c(C)c1`, for which the intracellular bacterial bioluminescence was inactive: 94.3%.

With `Cc1cc(C)cc(N2CC(C)Cn3c2nc2c3c(=O)n(CC(=O)O)c(=O)n2C)c1` (configuration not stated), the intracellular bacterial bioluminescence was inactive: 91%.

On to `O=C(O)C(=Cc1nc(-c2ccccc2)n2ccccc12)C(=O)O`, for which the intracellular bacterial bioluminescence is inactive: 123%.

On to `O=C(O)c1cccnc1SCc1cc2c(cc1Cl)OCO2`, for which the intracellular bacterial bioluminescence is inactive: 114%.

Consider `CC1C(=O)N2CCCc3cc(NC(=O)C(=O)NCc4cccs4)cc1c32` (configuration not stated), for which the intracellular bacterial bioluminescence was inactive: 20.7%.

In the case of `Nc1c(C(=O)NCc2ccc3c(c2)OCO3)sc2nc(-c3cccs3)c3c(c12)CCCC3`, the intracellular bacterial bioluminescence was inactive: 92.7%.

As to `Cc1ccc2c(C(O)CN3CCC4(CC3)CC(O)c3ccccc3O4)c(C)[nH]c2c1` (configuration not stated), the intracellular bacterial bioluminescence is inactive: 101%.

With `CN(c1cncc(C(=O)NCc2ccco2)c1)S(=O)(=O)c1ccccc1`, the intracellular bacterial bioluminescence was inactive: 102%.

Take `NC(=O)c1ccsc1NC(=O)c1ccccc1I`: the intracellular bacterial bioluminescence was inactive: 101%.

Take `COc1ccc(N2C(=O)C3N=NN(CC(=O)Nc4ccc(C)cc4C)C3C2=O)cc1Cl` (configuration not stated): the intracellular bacterial bioluminescence is inactive: 87.2%.

With `COCCCNC(=O)c1cncc(-c2ccc(C)cc2)c1`, the intracellular bacterial bioluminescence was inactive: 98.1%.

On to `CC(=O)c1ccc(NC(=O)Nc2c[nH]c3ccccc23)cc1`, for which the intracellular bacterial bioluminescence is inactive: 92.1%.

For the compound `CCOc1ccc(-c2noc(CSc3nc4cc5c(cc4c(=O)n3C3CCCC3)OCO5)n2)cc1`, the intracellular bacterial bioluminescence was inactive: 98.8%.

In the case of `CC(C)(C)c1nc2ccccc2c2nn(CC(=O)NCC3CC3)c(=O)n12`, the intracellular bacterial bioluminescence is inactive: 90.1%.

With `Cc1c(C)n(-c2cc(F)cc(F)c2)c2ncnc(Cl)c12`, the intracellular bacterial bioluminescence was inactive: 101%.

Regarding `COc1cccc(N(CC(=O)NCc2ccc(F)cc2)C(=O)CN2C(=O)COc3ccccc32)c1`, the intracellular bacterial bioluminescence was inactive: 89.3%.

With `CCOC(=O)c1cc([N+](=O)[O-])sc1NC(=O)c1ccc(S(=O)(=O)N(C)C)cc1`, the intracellular bacterial bioluminescence was inactive: 118%.

Regarding `Clc1ccc2nc(N3CCN(c4nc5ccccc5s4)CC3)sc2c1`, the intracellular bacterial bioluminescence was inactive: 107%.

For the compound `CCCCOC(=O)c1cnn2c(C(F)(F)F)cc(-c3ccc(F)cc3)nc12`, the intracellular bacterial bioluminescence was inactive: 117%.

Consider `CC1CCCN(CCCNC(=O)Cn2cccc2-c2nc(-c3ccc(Cl)cc3)cs2)C1` (configuration not stated), for which the intracellular bacterial bioluminescence is inactive: 99.7%.

For `COc1ccc(-c2nn(CCCC(=O)NCCc3ccc(Cl)cc3)c(=O)c3noc(C)c23)cc1`, the intracellular bacterial bioluminescence was inactive: 40.2%.

As for `CC(CCc1ccccc1)NC(=O)C1CCN(c2ccc3nnc(-c4ccccc4F)n3n2)CC1` (configuration not stated), the intracellular bacterial bioluminescence is inactive: 104%.

For `O=C(NNc1nc2c(Cl)cccc2s1)c1c(F)cccc1F`, the intracellular bacterial bioluminescence is inactive: 66.3%.

Turning to `CCOC(=O)c1ccc(NC(=O)CSc2nc(=O)n3cc(C)ccc3n2)cc1`, the intracellular bacterial bioluminescence was inactive: 85.7%.

With `COc1cc2nc(Nc3cccc(Cl)c3)sc2cc1OC`, the intracellular bacterial bioluminescence is inactive: 122%.

For `O=C(CSc1nc2ncccc2o1)NCC1CCCO1` (configuration not stated), the intracellular bacterial bioluminescence was inactive: 111%.

Regarding `O=C(Cc1cccc2ccccc12)Nc1nnc(-c2ccc3c(c2)OCCO3)o1`, the intracellular bacterial bioluminescence is inactive: 81.7%.

For the compound `O=C(Nc1ccccc1Oc1ccccc1)c1ccc2ncsc2c1`, the intracellular bacterial bioluminescence is inactive: 75.3%.

Consider `CCc1nnsc1C(=O)Nc1sc2c(c1C(=O)NCc1ccccc1)CCCC2`, for which the intracellular bacterial bioluminescence was inactive: 78.8%.

For `O=C(CSc1ccc2nnc(-c3ccncc3)n2n1)OCc1ccccc1`, the intracellular bacterial bioluminescence is inactive: 101%.

Consider `COc1ccccc1C(=O)N1CCN(c2oc(/C=C/c3ccc(C)cc3)nc2C#N)CC1`, for which the intracellular bacterial bioluminescence is inactive: 104%.

In the case of `O=C(c1cc(C2CC2)on1)N1CCCC1c1cccs1` (configuration not stated), the intracellular bacterial bioluminescence was inactive: 108%.

With `CC1CN(C)CCC1CCc1ccc(NC(=O)Cn2ncc3ccccc3c2=O)cc1` (configuration not stated), the intracellular bacterial bioluminescence is inactive: 17.8%.

Take `O=C(NC1CCCCNC1=O)C1CCN(Cc2noc(-c3ccc(F)cc3)n2)CC1` (configuration not stated): the intracellular bacterial bioluminescence was inactive: 118%.

Turning to `COc1ccccc1OCC(=O)NCCc1sc(-c2ccc(F)cc2)nc1C`, the intracellular bacterial bioluminescence was inactive: 87.9%.

In the case of `CCS(=O)(=O)c1ccccc1C(=O)/N=c1/sc2cc([N+](=O)[O-])ccc2n1C`, the intracellular bacterial bioluminescence is inactive: 101%.

Consider `CCOC(=O)C(=O)n1cnc2ccc(C(=O)Nc3cc(OCC)c(NC(=O)c4ccccc4F)cc3OCC)cc21`, for which the intracellular bacterial bioluminescence is inactive: 81%.

Take `CCOC(=O)C1=C(C)NC(O)=NC1c1ccc([N+](=O)[O-])cc1` (configuration not stated): the intracellular bacterial bioluminescence was inactive: 28%.

On to `O=C(O)CC1S/C(=N\N=C/c2ccccc2)N(c2ccc(O)cc2)C1=O` (configuration not stated), for which the intracellular bacterial bioluminescence is active: 160%.

As to `CC(C)Cn1c(N2CCCC2)nc2c1c(=O)[nH]c(=O)n2C`, the intracellular bacterial bioluminescence was inactive: 110%.

As to `CCc1cc(Sc2ccc(N)cc2)n2ncnc2n1`, the intracellular bacterial bioluminescence was inactive: 122%.

Regarding `COc1ccc(Cl)cc1NC(=O)CSc1ccc2nnc(-c3ccncc3)n2n1`, the intracellular bacterial bioluminescence is inactive: 87.7%.

Regarding `O=C1/C(=C/c2nc3ccccc3[nH]2)SC(=S)N1Nc1ccccc1`, the intracellular bacterial bioluminescence is inactive: 36.2%.

As to `Cc1nnc(SCC(=O)NCc2ccccc2Cl)[nH]c1=O`, the intracellular bacterial bioluminescence was inactive: 97.2%.

As to `Cc1ccc(-c2csc(NC(=O)c3ccc(N4C(=O)CCC4=O)cc3)n2)o1`, the intracellular bacterial bioluminescence was inactive: 80.4%.

On to `CC(=O)Nc1ccc(NC(=O)CSc2ccc(-c3ccc(Cl)cc3)nn2)cc1`, for which the intracellular bacterial bioluminescence is inactive: 96.8%.

Take `CC1(C)Cc2nc3sc4c(=O)n(CC(=O)NCC5CCCO5)cnc4c3cc2CO1` (configuration not stated): the intracellular bacterial bioluminescence is inactive: 98.2%.

For `CCCn1nc(C)cc1NC(=O)c1ncoc1-c1ccc(F)cc1`, the intracellular bacterial bioluminescence was inactive: 129%.

Take `N#Cc1cc2cc3c(cc2nc1SCC(=O)N1CCCc2ccccc21)OCO3`: the intracellular bacterial bioluminescence was inactive: 59.6%.

Consider `Cc1ccc(-c2csc(-c3cccn3CC(=O)NC3CCCCCCC3)n2)cc1`, for which the intracellular bacterial bioluminescence is inactive: 126%.

With `O=C(O)c1ccc(Oc2nccnc2N2CCCCC2)cc1`, the intracellular bacterial bioluminescence was inactive: 104%.

Regarding `CCC(=O)NNc1nc2c(Cl)cccc2s1`, the intracellular bacterial bioluminescence is inactive: 92%.

Take `CSc1cccc2sc(NCc3ccccc3)nc12`: the intracellular bacterial bioluminescence is inactive: 71.8%.

On to `Cc1c(Cl)cccc1NC(=O)Cn1c(=O)n(Cc2ccccc2)c(=O)c2sc3ccccc3c21`, for which the intracellular bacterial bioluminescence is inactive: 101%.

Regarding `O=c1oc2ccccc2n1CCCOc1ccccc1`, the intracellular bacterial bioluminescence is inactive: 74.8%.

For the compound `CC12CC(NC(=O)N1c1ccc3c(c1)OCCO3)c1ccccc1O2` (configuration not stated), the intracellular bacterial bioluminescence is inactive: 87.5%.

Take `Cc1cc2cc(C#N)c(SCC(=O)N3CCc4ccccc43)nc2cc1C`: the intracellular bacterial bioluminescence was inactive: 90.5%.
